{"source": "paper PMC10172768", "binders": {"B1": {"name": "Rad21-nYFP (protein, UniProt P30776 1-628)", "chain": "MFYSEAILSKKGPLAKVWLAAHWEKKLSKVQTLHTSIEQSVHAIVTEETAPMALRLSGQLMLGVVRIYSRKARYLLEDCTEALMRLKMSFQPGQVDMIEPATALQSLKGKDAVTQSANLTLPETITEFDLLVPDSTFDFQWSQLLRTPSRSSNTLELHSLPISSSPSFPSSQLSIEAGRNAQVESGFSLGESFAHVGNDMQFHLPISNSGAATPRSVHSDNQSQISIEVGRDAPAAAATDLSGIIGPQMTKSPASSVTHFSTPSMLPIGGTSLDDELLAPVDDLNLDLGLDDLLGDEQGANAPAIEADEQAETSSIHLPSDIMEDDSSRPAAAGVEEGQVVESATAPQQEKINPQKTVRRQRAIIDPVTELSSKQMKKQLADTSSITSPLCLNTSSIVFNATVNFTRNGKFNTSIFSSNLNPKVNELLQADFKQAILRKRKNESPEEVEPAKHQRTDTSTENQETAEVLDPEEIAAAELANITEAAIATLPQETVVQPEGEAPELGSPMGFPVTALESADDSLFDAPPVMLDEADLLGSERLDSSVSEALPSSQTAKDSLRNKWDPYTEGEKVSFQTLSAGCNREEAVQLFFDVLVLATKDVISVKQDVAIQNEITLTAKRGMLLSSL"}, "B2": {"name": "Rad21-cYFP (protein, UniProt P30776 1-628)", "chain": "B1 chain"}}, "key": {"Psm1-cYFP (S. pombe)": {"target": "T1, Psm1-cYFP (S. pombe) (UniProt O94383)", "T1 sequence": "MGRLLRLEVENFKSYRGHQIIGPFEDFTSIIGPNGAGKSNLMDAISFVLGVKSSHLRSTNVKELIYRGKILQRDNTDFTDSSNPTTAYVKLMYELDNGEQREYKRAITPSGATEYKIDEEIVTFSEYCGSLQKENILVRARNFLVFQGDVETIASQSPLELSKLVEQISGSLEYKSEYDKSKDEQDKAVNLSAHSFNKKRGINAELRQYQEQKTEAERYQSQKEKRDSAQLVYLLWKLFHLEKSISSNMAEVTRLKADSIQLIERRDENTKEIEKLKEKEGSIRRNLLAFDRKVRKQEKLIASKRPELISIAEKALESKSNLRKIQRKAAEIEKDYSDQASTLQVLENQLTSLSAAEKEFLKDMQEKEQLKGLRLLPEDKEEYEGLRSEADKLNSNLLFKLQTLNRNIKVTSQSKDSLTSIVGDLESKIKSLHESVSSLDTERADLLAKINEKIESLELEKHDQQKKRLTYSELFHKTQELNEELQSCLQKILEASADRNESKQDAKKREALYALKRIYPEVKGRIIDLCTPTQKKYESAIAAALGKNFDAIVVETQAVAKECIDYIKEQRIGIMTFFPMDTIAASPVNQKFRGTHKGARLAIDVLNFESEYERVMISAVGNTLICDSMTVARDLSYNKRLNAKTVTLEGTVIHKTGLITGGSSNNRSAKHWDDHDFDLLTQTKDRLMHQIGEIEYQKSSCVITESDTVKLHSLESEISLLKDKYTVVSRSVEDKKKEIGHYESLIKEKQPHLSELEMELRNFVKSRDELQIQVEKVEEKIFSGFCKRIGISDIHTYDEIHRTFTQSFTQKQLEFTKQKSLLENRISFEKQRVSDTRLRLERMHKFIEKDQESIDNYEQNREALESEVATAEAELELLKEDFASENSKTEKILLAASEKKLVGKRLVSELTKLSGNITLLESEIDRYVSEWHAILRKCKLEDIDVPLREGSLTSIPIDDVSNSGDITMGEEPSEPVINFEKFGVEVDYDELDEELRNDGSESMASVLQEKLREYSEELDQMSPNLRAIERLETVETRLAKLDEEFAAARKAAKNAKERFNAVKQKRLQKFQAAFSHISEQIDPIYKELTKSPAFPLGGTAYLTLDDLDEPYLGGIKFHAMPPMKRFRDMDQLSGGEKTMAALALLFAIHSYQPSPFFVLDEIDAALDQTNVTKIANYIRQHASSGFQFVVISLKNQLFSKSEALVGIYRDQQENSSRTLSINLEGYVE", "assay": "split reporter; Venus YFP halves fused to the C-termini of Rad21 and Psm1 at native loci; spinning-disk confocal microscopy of living S. pombe cells; also followed through mitosis, in cdc25-22, cut9-665 and cdc10-129 backgrounds, under nitrogen starvation and with hydroxyurea"}, "Psm1-nYFP (S. pombe)": {"target": "T2, Psm1-nYFP (S. pombe) (UniProt O94383)", "T2 sequence": "T1 sequence", "assay": "split reporter; Venus YFP halves fused to the C-termini of Rad21 and Psm1 at native loci; spinning-disk confocal microscopy of living S. pombe cells; also followed through mitosis, in cdc25-22, cut9-665 and cdc10-129 backgrounds, under nitrogen starvation and with hydroxyurea"}}, "note": "No constants are given. Whether binding was seen depends on the method and setting. Binding seen in cells or lysates may run through a third protein. Some entries that bind do so weakly or less than the wild type. Where a sequence is shown, tags or fusion partners need not be part of it."}
{"binder": "B1", "values": [{"measurement": "binding", "setting": "Psm1-cYFP (S. pombe)", "value": "binds"}]}
{"binder": "B2", "values": [{"measurement": "binding", "setting": "Psm1-nYFP (S. pombe)", "value": "binds"}]}
